Library screening results

Amino acid sequences for entries named in this document (tags omitted).
UniProt E9BF75, entry or part of it: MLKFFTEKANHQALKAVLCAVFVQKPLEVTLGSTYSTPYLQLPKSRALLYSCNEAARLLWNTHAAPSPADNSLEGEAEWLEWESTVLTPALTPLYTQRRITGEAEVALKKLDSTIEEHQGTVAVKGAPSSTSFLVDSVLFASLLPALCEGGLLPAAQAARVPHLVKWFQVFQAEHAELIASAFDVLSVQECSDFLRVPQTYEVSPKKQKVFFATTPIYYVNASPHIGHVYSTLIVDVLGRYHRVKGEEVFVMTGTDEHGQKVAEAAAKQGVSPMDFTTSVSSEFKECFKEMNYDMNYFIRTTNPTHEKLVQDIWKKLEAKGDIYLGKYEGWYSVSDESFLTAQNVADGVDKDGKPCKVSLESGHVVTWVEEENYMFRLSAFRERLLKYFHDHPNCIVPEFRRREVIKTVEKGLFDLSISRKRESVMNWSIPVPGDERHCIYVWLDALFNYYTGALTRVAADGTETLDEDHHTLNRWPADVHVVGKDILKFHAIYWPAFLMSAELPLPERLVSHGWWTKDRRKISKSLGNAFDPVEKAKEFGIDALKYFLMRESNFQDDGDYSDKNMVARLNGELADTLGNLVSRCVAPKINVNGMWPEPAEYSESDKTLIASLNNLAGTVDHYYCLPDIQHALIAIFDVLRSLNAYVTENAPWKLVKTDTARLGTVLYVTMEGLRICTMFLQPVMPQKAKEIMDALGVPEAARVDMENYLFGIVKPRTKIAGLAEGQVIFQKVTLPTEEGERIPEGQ

Data taken from ChEMBL document CHEMBL3988442, “University of Dundee, Small-Polar-MMV Screening Library” (2021).

A: 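Assay on Mycobacterium tuberculosis, filed only as a heat shock assay from Cornell; the read-out is not stated. The concentration is filed as 10 mM, unlikely as a test dose, so the dose is not known. Higher reads as stronger inhibition (inferred: compounds with an IC50 in retests scored well above the rest). Size under these conditions: about 69,000 compounds, about 930 of them at 50% or above in at least one test.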
B: 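Whole-cell assay for inhibitors of Mycobacterium tuberculosis growth, labelled Cornell in the record; the read-out is not stated. The concentration is filed as 10 mM, unlikely as a test dose, so the dose is not known. Higher means stronger inhibition (inferred from two other growth screens of the library). Size under these conditions: about 53,000 compounds, about 900 of them at 50% or above in at least one test.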
C: 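Primary screen of methionyl-tRNA synthetase; the read-out is not stated. Target: Methionyl-tRNA synthetase (putative), Leishmania donovani (UniProt E9BF75). The test concentration is not given. Values are per cent inhibition. Size under these conditions: about 68,000 compounds, about 24 of them at 50% or above in at least one test.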

All values are in %. The controls that fix the scale are not given in the record; negative values are as filed. The compounds are a random part of those screened.

{"smiles": "COCCN1CCc2ncc(CN(C)C)n2CC1", "A": 8.443, "B": 19.35, "C": 5.797}
{"smiles": "Cc1nc(CN2CCOCC3(CCN(c4cccnc4)CC3)C2)cs1.O=C(O)C(F)(F)F.O=C(O)C(F)(F)F", "A": -4.236, "B": 36.27}
{"smiles": "COc1ccc(C)cc1CC(=O)N1CCN(CC(C)O)CC1", "stereo": "stereo not shown", "A": 10.93, "B": 23.61, "C": 15.68}
{"smiles": "N#Cc1ccc(NC2CCN(c3ncccn3)CC2)cc1C(F)(F)F", "A": 101.3, "B": 40.35, "C": 18.3}
{"smiles": "Cc1ncncc1C(=O)N1CCCC(Cc2nccs2)C1", "stereo": "stereo not shown", "A": -10.87, "B": -16.51, "C": 8.495}
{"smiles": "O=C(O)C(F)(F)F.[H][C@@]12CN(CC3CCOC3)C[C@]1([H])OCCN2c1cnccn1", "stereo": "stereo partly shown", "A": 24.03, "B": 3.753}
{"smiles": "O=C(O)C(F)(F)F.O=C(O)C(F)(F)F.[H][C@@]12CCCO[C@]1([H])[C@H](N(C)Cc1ccco1)CN(Cc1nccs1)C2", "A": 7.471, "B": -13.58}
{"smiles": "CCOCC(=O)NC1(c2nc(C)cs2)CCCC1", "A": -9.215, "C": 0.2688}
{"smiles": "c1cnc(-c2nc(CNC3CCc4ncnn4C3)cs2)nc1", "stereo": "stereo not shown", "A": -0.9603, "C": 17.21}
{"smiles": "CCOCCN1CCN(CC(=O)N2CCCC2)CC1CC", "stereo": "stereo not shown", "A": -3.367, "B": -44.16, "C": 15.95}
{"smiles": "Cc1noc(CN2Cc3ccccc3CC2c2nnc(C)o2)n1", "stereo": "stereo not shown", "A": -2.401, "C": 12.5}
{"smiles": "Cc1nn(C)c(C)c1C1CCCN1CCCc1nc2ccccc2o1", "stereo": "stereo not shown", "A": 8.274, "B": 65.17, "C": 15.69}
{"smiles": "CCS(=O)(=O)CCNC(=O)[C@@]12CNC[C@@H]1CN(C1CCCC1)C2", "C": 6.923}
{"smiles": "Cc1nc(CNC2CCc3ncnn3C2)oc1C", "stereo": "stereo not shown", "A": 8.555, "B": -0.8816, "C": 15.81}
{"smiles": "CC(NC(=O)N(C)Cc1cnn(C)c1)c1nncn1C", "stereo": "stereo not shown", "A": 2.86, "B": -0.03993, "C": 10.11}
{"smiles": "O=C1CO[C@H]2CN(Cc3ccc4c(c3)OCO4)C[C@H]2N1", "C": 4.407}
{"smiles": "CC(C)Cn1cc(NC(=O)NCC2CCN(c3ccccc3)C2)cn1", "stereo": "stereo not shown", "A": 16.18, "B": 38.8, "C": 6.87}
{"smiles": "N#CC1COCCN1C(=O)c1ccc2[nH]cnc2c1", "stereo": "stereo not shown", "A": 17.6, "B": 5.556, "C": 10.16}
{"smiles": "CC(C)C(=O)N1CCN(c2cc(N(C)C)cnn2)CC1", "A": 6.271, "B": 14.71, "C": 8.633}
{"smiles": "Cc1nc(CN(C)Cc2cc3c(cc2OC(F)F)OCO3)cs1", "A": -13.11, "B": -11.34, "C": 10.06}
{"smiles": "O=C(NC1CC1)c1nc2c(o1)CN(c1ncccn1)C2", "A": 9.717, "B": 4.81, "C": 5.435}
{"smiles": "CN(C)Cc1nc(C(C)(C)NC(=O)c2cccc3ccccc23)no1", "A": 0.7427, "C": 5.59}
{"smiles": "[H][C@]12CCN(C(=O)Cc3ccc(OC)cc3)CC[C@@]1([H])S(=O)(=O)N(C)C2", "A": 16.54, "B": 0.1203}
{"smiles": "O=C1C(N2CCN(c3ccccc3Cl)CC2)CCN1C1CCOCC1", "stereo": "stereo not shown", "A": -27.8, "C": 2.486}
{"smiles": "CCCn1nc2c(cc1=O)CN(Cc1nc(C)c(C)o1)CC2", "A": 0.5944, "B": -47.55, "C": 12.57}
{"smiles": "CN(C)C(=O)N1CCOCC2(CCN(c3ccccn3)C2)C1", "stereo": "stereo not shown", "C": 16.73}
{"smiles": "Cn1ccc(CN2CCC(Oc3ccccc3)CC2)cc1=O", "A": 18.69, "B": 7.396, "C": 13.36}
{"smiles": "Cc1ccc(C(F)(F)F)cc1C(=O)N[C@H]1CN(CCO)C[C@@H]1C1CC1", "A": -20.79, "C": 5.867}
{"smiles": "COc1ccc2cccc(CC(=O)NCCCc3n[nH]c(C)n3)c2c1", "A": -6.946, "B": -15.24, "C": 8.099}
{"smiles": "O=C(Cc1cccs1)N1CCOC(c2cccc(O)c2)C1", "stereo": "stereo not shown", "A": 8.769, "B": 9.13, "C": 5.013}

Repeated from the top, 3 entries:

For COCCN1CCc2ncc(CN(C)C)n2CC1 the result was A: 8.443%; B: 19.35%; C: 5.797%.
For Cc1nc(CN2CCOCC3(CCN(c4cccnc4)CC3)C2)cs1.O=C(O)C(F)(F)F.O=C(O)C(F)(F)F the result was A: -4.236%; B: 36.27%.
For COc1ccc(C)cc1CC(=O)N1CCN(CC(C)O)CC1 (stereo not shown) the result was A: 10.93%; B: 23.61%; C: 15.68%.